These are yes or no findings as the source states them, for the method shown. In cells and extracts the contact can be indirect. Here binding means that the protein was enriched with, or labelled near, the bait; the list need not be complete.
Target: human CAP1 whose carboxyl-terminal end was conjugated with the Fc region of mouse immunoglobulin (human) (UniProt Q01518)
Assay: affinity purification with mass spectrometry; THP-1 lysate incubated with purified CAP1-mFc (control mFc), pulled down with mFc-specific beads, LC-MS/MS, SAINT scoring; only the target purified

Sequences of proteins named here, by UniProt entry; tags and fusion partners are left off. A change or cut given only in a name is not applied to a line headed by its entry.
UniProt Q01518: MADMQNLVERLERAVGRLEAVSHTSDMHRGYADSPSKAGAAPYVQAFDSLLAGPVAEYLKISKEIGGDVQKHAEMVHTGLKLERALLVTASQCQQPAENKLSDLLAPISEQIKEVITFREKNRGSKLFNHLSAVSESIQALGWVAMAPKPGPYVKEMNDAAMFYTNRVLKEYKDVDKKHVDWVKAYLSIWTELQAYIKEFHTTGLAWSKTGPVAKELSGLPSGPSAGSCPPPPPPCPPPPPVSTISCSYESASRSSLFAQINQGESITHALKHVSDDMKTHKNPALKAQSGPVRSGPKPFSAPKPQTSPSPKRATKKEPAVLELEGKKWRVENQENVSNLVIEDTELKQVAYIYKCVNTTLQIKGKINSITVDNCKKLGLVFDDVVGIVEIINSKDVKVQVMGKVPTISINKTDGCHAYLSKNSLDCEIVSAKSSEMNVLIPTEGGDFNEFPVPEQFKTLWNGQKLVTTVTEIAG
UniProt Q05655: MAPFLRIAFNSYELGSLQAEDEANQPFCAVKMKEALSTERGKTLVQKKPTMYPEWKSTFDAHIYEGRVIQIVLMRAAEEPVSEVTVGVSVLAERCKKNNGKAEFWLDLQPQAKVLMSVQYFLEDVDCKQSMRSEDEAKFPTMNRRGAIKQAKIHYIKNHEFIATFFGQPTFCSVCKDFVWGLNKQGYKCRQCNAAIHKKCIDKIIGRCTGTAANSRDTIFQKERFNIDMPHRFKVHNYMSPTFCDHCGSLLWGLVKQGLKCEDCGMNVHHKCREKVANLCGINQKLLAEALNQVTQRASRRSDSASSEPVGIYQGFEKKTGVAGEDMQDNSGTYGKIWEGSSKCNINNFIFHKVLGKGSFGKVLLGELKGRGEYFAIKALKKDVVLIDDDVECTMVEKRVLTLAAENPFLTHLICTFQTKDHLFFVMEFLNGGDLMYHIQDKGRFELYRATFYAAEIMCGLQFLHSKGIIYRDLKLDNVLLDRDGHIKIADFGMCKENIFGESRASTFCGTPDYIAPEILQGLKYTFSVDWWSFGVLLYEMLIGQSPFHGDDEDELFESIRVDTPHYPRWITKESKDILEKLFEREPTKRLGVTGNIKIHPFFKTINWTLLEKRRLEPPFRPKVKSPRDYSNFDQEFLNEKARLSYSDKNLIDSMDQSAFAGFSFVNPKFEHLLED

Substance: PKCδ, endogenous in THP-1 monocytes (from UniProt Q05655 1-676) (enzyme)
- binding: binds
